Like-named read-outs stand apart in the source and are kept apart here. Results are given in words; binding and its absence hold for the method and conditions named. In cells and extracts the contact can be indirect. Here binding means that the protein was enriched with, or labelled near, the bait; the list need not be complete.
B1: DCAF4, endogenous (protein, UniProt Q8WV16 1-495)
chain: MNKSRWQSRRRHGRRSHQQNPWFRLRDSEDRSDSRAAQPAHDSGHGDDESPSTSSGTAGTSSVPELPGFYFDPEKKRYFRLLPGHNNCNPLTKESIRQKEMESKRLRLLQEEDRRKKIARMGFNASSMLRKSQLGFLNVTNYCHLAHELRLSCMERKKVQIRSMDPSALASDRFNLILADTNSDRLFTVNDVKVGGSKYGIINLQSLKTPTLKVFMHENLYFTNRKVNSVCWASLNHLDSHILLCLMGLAETPGCATLLPASLFVNSHPGIDRPGMLCSFRIPGAWSCAWSLNIQANNCFSTGLSRRVLLTNVVTGHRQSFGTNSDVLAQQFALMAPLLFNGCRSGEIFAIDLRCGNQGKGWKATRLFHDSAVTSVRILQDEQYLMASDMAGKIKLWDLRTTKCVRQYEGHVNEYAYLPLHVHEEEGILVAVGQDCYTRIWSLHDARLLRTIPSPYPASKADIPSVAFSSRLGGSRGAPGLLMAVGQDLYCYSYS
B2: FBXL12, endogenous (protein, UniProt Q9NXK8 1-326)
chain: MATLVELPDSVLLEIFSYLPVRDRIRISRVCHRWKRLVDDRWLWRHVDLTLYTMRPKVMWHLLRRYMASRLHSLRMGGYLFSGSQAPQLSPALLRALGQKCPNLKRLCLHVADLSMVPITSLPSTLRTLELHSCEISMAWLHKQQDPTVLPLLECIVLDRVPAFRDEHLQGLTRFRALRSLVLGGTYRVTETGLDAGLQELSYLQRLEVLGCTLSADSTLLAISRHLRDVRKIRLTVRGLSAPGLAVLEGMPALESLCLQGPLVTPEMPSPTEILSSCLTMPKLRVLELQGLGWEGQEAEKILCKGLPHCMVIVRACPKESMDWWM

The chains behind the UniProt entries cited, without tags or fusion partners.
UniProt P61201: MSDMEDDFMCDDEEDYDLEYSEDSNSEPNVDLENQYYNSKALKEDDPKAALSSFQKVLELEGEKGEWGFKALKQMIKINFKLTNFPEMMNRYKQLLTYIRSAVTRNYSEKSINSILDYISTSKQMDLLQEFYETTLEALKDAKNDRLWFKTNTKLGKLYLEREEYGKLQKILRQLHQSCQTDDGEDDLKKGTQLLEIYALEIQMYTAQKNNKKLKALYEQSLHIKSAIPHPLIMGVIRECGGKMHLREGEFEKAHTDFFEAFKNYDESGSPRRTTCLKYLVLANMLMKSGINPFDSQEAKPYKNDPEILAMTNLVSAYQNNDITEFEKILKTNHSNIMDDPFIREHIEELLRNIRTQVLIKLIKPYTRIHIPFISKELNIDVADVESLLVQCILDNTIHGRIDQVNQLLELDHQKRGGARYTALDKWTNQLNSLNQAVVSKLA
UniProt Q7L5N1: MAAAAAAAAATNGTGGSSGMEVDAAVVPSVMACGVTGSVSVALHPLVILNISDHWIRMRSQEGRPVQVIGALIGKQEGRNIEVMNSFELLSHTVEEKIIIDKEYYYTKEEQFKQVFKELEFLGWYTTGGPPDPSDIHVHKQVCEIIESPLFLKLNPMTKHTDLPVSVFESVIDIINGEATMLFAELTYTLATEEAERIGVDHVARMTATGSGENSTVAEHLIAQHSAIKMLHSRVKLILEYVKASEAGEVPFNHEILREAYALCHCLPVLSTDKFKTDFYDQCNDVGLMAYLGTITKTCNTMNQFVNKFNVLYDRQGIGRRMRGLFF
UniProt Q92466: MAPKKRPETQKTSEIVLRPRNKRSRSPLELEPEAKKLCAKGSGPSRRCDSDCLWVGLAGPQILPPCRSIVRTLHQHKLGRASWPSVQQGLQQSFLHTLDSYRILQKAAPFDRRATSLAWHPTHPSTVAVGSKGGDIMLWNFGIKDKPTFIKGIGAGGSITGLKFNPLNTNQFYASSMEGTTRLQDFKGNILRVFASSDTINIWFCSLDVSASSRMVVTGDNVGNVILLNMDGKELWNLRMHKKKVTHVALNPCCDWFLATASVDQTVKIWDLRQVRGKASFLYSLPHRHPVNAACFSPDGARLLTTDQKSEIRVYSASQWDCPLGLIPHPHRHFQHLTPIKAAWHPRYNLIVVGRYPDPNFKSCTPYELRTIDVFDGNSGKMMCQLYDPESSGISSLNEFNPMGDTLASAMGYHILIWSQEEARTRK
UniProt Q9UBF6: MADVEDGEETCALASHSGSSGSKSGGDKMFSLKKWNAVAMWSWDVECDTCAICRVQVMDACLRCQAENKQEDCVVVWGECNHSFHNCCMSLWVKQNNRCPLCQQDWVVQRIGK
UniProt Q16531: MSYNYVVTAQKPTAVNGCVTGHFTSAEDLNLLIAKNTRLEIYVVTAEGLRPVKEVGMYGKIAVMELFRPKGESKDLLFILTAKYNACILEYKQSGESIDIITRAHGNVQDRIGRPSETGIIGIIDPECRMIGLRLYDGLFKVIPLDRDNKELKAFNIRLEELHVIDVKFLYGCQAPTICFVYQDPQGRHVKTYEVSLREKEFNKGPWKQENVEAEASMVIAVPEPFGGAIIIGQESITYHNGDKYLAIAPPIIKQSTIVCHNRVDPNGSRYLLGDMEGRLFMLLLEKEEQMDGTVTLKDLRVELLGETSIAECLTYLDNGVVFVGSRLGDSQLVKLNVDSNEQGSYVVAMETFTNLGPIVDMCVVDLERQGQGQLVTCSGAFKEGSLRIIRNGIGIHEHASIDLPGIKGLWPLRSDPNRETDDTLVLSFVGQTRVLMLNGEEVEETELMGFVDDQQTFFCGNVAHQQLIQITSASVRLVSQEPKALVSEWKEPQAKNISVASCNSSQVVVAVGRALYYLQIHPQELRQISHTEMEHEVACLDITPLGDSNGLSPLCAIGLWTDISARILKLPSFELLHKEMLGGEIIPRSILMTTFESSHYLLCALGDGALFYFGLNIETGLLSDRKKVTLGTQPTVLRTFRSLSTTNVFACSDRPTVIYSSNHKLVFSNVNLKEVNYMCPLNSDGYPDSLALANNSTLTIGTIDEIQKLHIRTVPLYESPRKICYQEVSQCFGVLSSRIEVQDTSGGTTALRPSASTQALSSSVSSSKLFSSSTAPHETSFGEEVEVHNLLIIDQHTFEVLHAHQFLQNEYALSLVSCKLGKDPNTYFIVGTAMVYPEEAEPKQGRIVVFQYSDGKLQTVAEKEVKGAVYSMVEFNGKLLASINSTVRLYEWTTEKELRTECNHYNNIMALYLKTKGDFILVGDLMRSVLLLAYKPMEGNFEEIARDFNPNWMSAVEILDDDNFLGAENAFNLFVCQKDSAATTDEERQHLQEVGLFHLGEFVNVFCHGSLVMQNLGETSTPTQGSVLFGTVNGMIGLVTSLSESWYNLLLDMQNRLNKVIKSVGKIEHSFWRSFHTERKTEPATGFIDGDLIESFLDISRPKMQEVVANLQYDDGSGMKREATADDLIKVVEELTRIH
UniProt Q13619: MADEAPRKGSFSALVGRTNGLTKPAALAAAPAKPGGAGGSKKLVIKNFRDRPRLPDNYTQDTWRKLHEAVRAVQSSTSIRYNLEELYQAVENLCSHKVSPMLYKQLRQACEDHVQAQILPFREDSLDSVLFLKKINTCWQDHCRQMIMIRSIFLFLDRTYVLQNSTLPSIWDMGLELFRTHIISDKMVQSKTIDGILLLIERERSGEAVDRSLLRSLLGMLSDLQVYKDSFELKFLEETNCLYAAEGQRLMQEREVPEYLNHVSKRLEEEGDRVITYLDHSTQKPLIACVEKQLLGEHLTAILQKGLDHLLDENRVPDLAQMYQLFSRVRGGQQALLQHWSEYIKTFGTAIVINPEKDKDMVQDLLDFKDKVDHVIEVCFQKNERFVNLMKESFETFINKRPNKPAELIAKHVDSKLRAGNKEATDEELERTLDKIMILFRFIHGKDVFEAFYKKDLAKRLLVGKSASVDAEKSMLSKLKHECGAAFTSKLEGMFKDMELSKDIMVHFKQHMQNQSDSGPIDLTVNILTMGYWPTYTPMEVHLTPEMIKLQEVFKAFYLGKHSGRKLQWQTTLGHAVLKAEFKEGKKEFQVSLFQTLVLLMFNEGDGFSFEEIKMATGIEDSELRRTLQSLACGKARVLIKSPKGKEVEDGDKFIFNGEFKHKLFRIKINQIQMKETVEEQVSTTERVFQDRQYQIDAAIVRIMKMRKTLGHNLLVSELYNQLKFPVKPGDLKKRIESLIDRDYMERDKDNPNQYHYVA

Tests used:
Assay in all cases: affinity purification with mass spectrometry; HEK293T cells expressing HBTH-tagged CSN2 or CSN6, 1 μM CSN5i-3 or DMSO for 16 h; in-cell cross-linking with […] formaldehyde; streptavidin resin; DDA and DIA LC MS/MS
HBTH-tagged CSN2 (human) [1] = biological target: HBTH-tagged CSN2 (human) (UniProt P61201)
HBTH-tagged CSN6 (human) [2] = biological target: HBTH-tagged CSN6 (human) (UniProt Q7L5N1)
HBTH-tagged CSN2 (human) [3] = biological target: HBTH-tagged CSN2 (human) (UniProt P61201); remark: listed apart in the source
HBTH-tagged CSN6 (human) [4] = biological target: HBTH-tagged CSN6 (human) (UniProt Q7L5N1); remark: listed apart in the source

| Molecule | binding (HBTH-tagged CSN2 (human) [1]) | binding (HBTH-tagged CSN6 (human) [2]) | binding (HBTH-tagged CSN2 (human) [3]) | binding (HBTH-tagged CSN6 (human) [4]) |
| --- | --- | --- | --- | --- |
| DDB2, endogenous (from UniProt Q92466 1-427) | binds | binds |  |  |
| RBX2, endogenous (from UniProt Q9UBF6 1-113) | binds | binds |  |  |
| DDB1, endogenous (from UniProt Q16531 1-1140) |  | binds |  |  |
| CUL4A, endogenous (from UniProt Q13619 1-759) |  | binds |  |  |
| B1 |  |  | binds | binds |
| B2 |  |  | binds | binds |

— PMC13128448
